For some assays here: Negatives hold for the conditions tested. Where a protein sequence is shown, tags need not be part of it.
Legend:
Experiment in all cases: activity in cells
[1] = test system: T1, Vika (Vibrio coralliilyticus ATCC BAA-450); details: protein in cells, only the site is given
T1 sequence (limits assumed): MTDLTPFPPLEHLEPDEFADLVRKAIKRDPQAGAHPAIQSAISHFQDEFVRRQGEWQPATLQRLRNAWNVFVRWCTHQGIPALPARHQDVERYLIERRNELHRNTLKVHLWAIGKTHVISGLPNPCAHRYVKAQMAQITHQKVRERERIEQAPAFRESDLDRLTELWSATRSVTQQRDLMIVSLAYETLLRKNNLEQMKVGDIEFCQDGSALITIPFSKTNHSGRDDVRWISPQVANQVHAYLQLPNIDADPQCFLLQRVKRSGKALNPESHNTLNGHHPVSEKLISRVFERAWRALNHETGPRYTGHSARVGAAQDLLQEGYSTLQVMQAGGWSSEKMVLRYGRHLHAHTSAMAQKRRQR

Cre (Bacteriophage P1) = target: T2, Cre (Bacteriophage P1) (UniProt P06956); details: protein in cells, only the site is given
T2 sequence (limits assumed): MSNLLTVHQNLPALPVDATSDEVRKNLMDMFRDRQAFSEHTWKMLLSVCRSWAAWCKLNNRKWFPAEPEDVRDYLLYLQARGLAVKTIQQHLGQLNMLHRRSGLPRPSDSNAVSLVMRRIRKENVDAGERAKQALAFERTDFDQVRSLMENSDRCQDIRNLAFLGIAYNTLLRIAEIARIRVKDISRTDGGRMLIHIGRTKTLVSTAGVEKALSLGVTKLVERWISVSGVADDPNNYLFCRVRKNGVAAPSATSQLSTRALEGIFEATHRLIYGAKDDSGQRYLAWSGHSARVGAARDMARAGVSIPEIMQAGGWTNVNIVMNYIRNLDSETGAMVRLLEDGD

[2] = test system: T3, Dre (Enterobacteria phage D6); details: E. coli excision reporter; protein in cells; only the site is given
T3 sequence (limits assumed): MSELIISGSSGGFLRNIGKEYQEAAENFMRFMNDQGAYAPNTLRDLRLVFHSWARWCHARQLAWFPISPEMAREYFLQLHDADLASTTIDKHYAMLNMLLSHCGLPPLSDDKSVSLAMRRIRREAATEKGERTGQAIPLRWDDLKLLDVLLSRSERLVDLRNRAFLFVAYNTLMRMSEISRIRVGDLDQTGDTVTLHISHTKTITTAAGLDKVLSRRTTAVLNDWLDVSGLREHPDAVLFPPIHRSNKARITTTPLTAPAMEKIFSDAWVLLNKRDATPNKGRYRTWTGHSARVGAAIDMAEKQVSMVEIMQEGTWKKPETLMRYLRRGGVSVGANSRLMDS

[3] = test system: T4, VCre (Vibrio plasmid p0908); details: protein in cells, only the site is given
T4 sequence (limits assumed): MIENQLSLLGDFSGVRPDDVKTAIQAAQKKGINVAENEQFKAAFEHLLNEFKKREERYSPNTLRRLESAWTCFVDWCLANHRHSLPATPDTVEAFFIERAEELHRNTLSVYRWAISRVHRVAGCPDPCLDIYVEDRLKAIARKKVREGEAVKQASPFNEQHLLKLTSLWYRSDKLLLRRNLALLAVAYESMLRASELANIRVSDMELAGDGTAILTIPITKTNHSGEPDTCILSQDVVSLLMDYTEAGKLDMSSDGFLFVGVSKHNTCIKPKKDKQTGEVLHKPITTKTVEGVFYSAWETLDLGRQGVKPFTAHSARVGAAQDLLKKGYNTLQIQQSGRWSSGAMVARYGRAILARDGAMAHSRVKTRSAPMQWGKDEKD

Panto (Pantoea sp. aB) = test system: T5, Panto (Pantoea sp. aB); details: E. coli excision reporter, arabinose induced; protein in cells; only the site is given
T5 sequence (limits assumed): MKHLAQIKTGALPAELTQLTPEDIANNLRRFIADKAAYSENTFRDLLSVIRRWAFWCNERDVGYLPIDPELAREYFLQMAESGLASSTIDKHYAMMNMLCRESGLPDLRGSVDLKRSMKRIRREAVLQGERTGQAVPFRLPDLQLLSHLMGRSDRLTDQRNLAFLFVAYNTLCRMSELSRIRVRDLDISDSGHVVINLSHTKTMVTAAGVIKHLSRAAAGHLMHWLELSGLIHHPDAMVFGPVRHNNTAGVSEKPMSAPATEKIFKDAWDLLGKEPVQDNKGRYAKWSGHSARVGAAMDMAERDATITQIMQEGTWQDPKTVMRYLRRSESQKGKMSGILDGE

[4] = test system: T6, Nigri (Vibrio nigripulchritudo); details: E. coli excision reporter, arabinose induced; protein in cells; only the site is given
T6 sequence (limits assumed): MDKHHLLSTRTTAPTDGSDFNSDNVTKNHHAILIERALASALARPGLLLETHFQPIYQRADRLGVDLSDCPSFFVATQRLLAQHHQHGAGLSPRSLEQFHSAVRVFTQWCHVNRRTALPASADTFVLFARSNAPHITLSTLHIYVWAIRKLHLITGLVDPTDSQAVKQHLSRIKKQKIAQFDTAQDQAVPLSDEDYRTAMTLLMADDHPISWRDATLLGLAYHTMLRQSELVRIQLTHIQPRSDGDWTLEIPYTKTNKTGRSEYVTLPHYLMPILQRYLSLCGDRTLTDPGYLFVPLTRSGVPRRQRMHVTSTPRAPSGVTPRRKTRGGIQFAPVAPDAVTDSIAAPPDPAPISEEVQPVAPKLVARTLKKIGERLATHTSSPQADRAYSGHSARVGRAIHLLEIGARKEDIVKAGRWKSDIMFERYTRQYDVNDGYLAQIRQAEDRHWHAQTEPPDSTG

[5] = E. coli, 100 ug/ml arabinose, variant of vox
[6] = E. coli, prominent activity, variant of loxP

AACAGCTTTGAGAGCTGTTGCTCTCAGCTGAATT (double strand) [voxCMp92]
activity on this sequence [1, 5]: not active

AACAGGACTGAGATAAAACAGTCTCAGACAGCAT (double strand) [voxCHp3]
activity on this sequence [1, 5]: not active

AAGAGAACTGAGAAAATATTCTCTCAGAGGGAAT (double strand) [voxCHX]
activity on this sequence [1, 5]: not active

AAGAGGTGTGAGACTGAATTTTCTCAGTCAGGTT (double strand) [voxCH21]
activity on this sequence [1, 5]: not active

AATAGGTCTGAGAACGCCCATTCTCAGACGTATT (double strand) [vox]
activity on this sequence (Cre (Bacteriophage P1); E. coli excision reporter): not active | activity on this sequence [2]: not active | activity on this sequence ([3]; E. coli excision reporter): not active | activity on this sequence ([1]; E. coli excision of ~1 kb between two vox sites, arabinose induced): active

ACAACCATTTATAATATATAATATATGATGTTAT (double strand) [loxhXp22]
activity on this sequence (Cre (Bacteriophage P1); [6]): active

ATAACTTCGTATAGCATACATTATACGAAGTTAT (double strand) [loxP]
activity on this sequence ([1]; E. coli excision reporter): not active

CAGAGCTCTGAGACTTTGTGTTCTCAAAGATATC (double strand) [voxCH18]
activity on this sequence [1, 5]: not active

GAAACTTTAAATAATAAGTCTTATATAAAGTTTC (double strand) [pox]
activity on this sequence (Panto (Pantoea sp. aB)): active

GTAACTGAGTATATGCATATATATACGTATATAT (double strand) [loxM5]
activity on this sequence (Cre (Bacteriophage P1); [6]): active

TAACTTTAAATAATTGGCATTATTTAAAGTTA (double strand) [rox]
activity on this sequence ([1]; E. coli excision reporter): not active

TCAATTTCCGAGAATGACAGTTCTCAGAAATTGA (double strand) [VloxP]
activity on this sequence ([3]; E. coli, arabinose titration and lacZ reporter): active | activity on this sequence ([1]; E. coli excision reporter): not active

TGAATGTCCTATAATTACACTTATAGGACATTCA (double strand) [nox]
activity on this sequence [4]: active
